Among the data in PMC9767466 are binding values, retold here.

No constants are given. Whether binding was seen depends on the method and setting. A result given as binding can be weak or reduced; the word gives no strength. For part of these data: Where a sequence is shown, tags or fusion partners need not be part of it. For part of these data: Binding seen in cells or lysates may run through a third protein.

Test [1] deals with P2X7-SmBiT. The experiment in a line: split reporter; NanoBiT in live HEK293T / HEK293 cells; LgBiT and SmBiT fusions on separate (TK) vectors, 1:1; luminescence read after Nano-Glo Live cell substrate.
The target of test [2] is StrepII-FLAG-tagged EROS (pEGBacMam-Strep-FLAG-Strep-EROS) (not stated (human in p-0042, mouse in p-0012)). The experiment in a line: SEC; Streptactin eluate of EROS from HEK293-F cells run on a Superose 6 column; protein (280 nm) and heme (414 nm) traces; fractions immunoblotted for gp91phox-GFP, EROS-FLAG and p22phox. (In gel filtration, larger molecules generally elute earlier.)

Test [3] has the same target. The experiment in a line: co-IP; HEK293-F cells co-transfected with StrepII-FLAG-EROS, gp91phox-GFP and p22phox; membranes solubilised with 1% LMNG in 50 mM HEPES pH 7.5, 100 mM NaCl, 20% glycerol; EROS held on Streptactin resin, eluted with 5 mM desthiobiotin; Western blot for gp91phox; cells with or without succinyl acetone. (In western blotting, separated proteins are transferred to a membrane and probed.)

B1: LgBiT-EROS (protein, UniProt Q9BQA9 1-187)
chain: MYLQVETRTSSRLHLKRAPGIRSWSLLVGILSIGLAAAYYSGDSLGWKLFYVTGCLFVAVQNLEDWEEAIFDKSTGKVVLKTFSLYKKLLTLFRAGHDQVVVLLHDVRDVSVEEEKVRYFGKGYMVVLRLATGFSHPLTQSAVMGHRSDVEAIAKLITSFLELHCLESPTELSQSSDSEAGDPASQS
On to B1, for which the binding entry in test [1] was “binds”.

B2: gp91phox-GFP (protein, UniProt Q61093 1-570)
chain: MGNWAVNEGLSIFVILVWLGLNVFLFINYYKVYDDGPKYNYTRKLLGSALALARAPAACLNFNCMLILLPVCRNLLSFLRGSSACCSTRIRRQLDRNLTFHKMVAWMIALHTAIHTIAHLFNVEWCVNARVGISDRYSIALSDIGDNENEEYLNFAREKIKNPEGGLYVAVTRLAGITGIVITLCLILIITSSTKTIRRSYFEVFWYTHHLFVIFFIGLAIHGAERIVRGQTAESLEEHNLDICADKIEEWGKIKECPVPKFAGNPPMTWKWIVGPMFLYLCERLVRFWRSQQKVVITKVVTHPFKTIELQMKKKGFKMEVGQYIFVKCPKVSKLEWHPFTLTSAPEEDFFSIHIRIVGDWTEGLFNACGCDKQEFQDAWKLPKIAVDGPFGTASEDVFSYEVVMLVGAGIGVTPFASILKSVWYKYCDNATSLKLKKIYFYWLCRDTHAFEWFADLLQLLETQMQERNNANFLSYNIYLTGWDESQANHFAVHHDEEKDVITGLKQKTLYGRPNWDNEFKTIASEHPNTTIGVFLCGPEALAETLSKQSISNSESGPRGVHFIFNKENF
Regarding B2, the binding entry in test [2] and in test [3] was “binds” each time.
